PubChem BioAssay AID540256 (National Center for Advancing Translational Sciences (NCATS), 2011)
Where “and” joins values, the source holds several entries; their conditions need not be identical. Equal values may be shown once. Among all 300,000 compounds or so, about 3,700 (1.2%) were called active. The inconclusive results got no clear call from the source; some entries with a clear call stand among them for comparison. Calls come from the whole dose curve; tested in HEK293 cells. Potencies beside an inconclusive call are fits to weak or partial responses and may not hold up.

Test: qHTS for Inhibitors of binding or entry into cells for Lassa Virus; note: nearly all actives have a fitted effect of over 50% in size
Conditions: Lassa virus pseudotype entry inhibition, cell reporter; activity change, negative = inhibition: at 37.9 µM (top of the series) unless noted
% is set by controls: 0 for no effect and ±100 for the full control effect; potency is the fitted concentration of half-maximal effect.

Structure (SMILES)	Potency	activity change, negative = inhibition
CSc1nn(Cc2ccc(F)cc2)c(N)c1S(=O)(=O)c1ccc(Cl)cc1	inconclusive: 12.6 µM [inhibitor, single point]	
OCCN1CCN(CC(O)COc2ccc(Cl)cc2)CC1 (stereo not drawn)		inactive: 4.72%
Cc1cc(C)c2cc(C(=O)Nc3ccccc3)[nH]c2c1	inconclusive: 6.31 µM [activator, single point]	
COc1ccc(C(=O)Nc2ccc3[nH]ccc3c2)cc1	active: 1.41 µM	
COc1ccccc1CNC(=O)c1cc(-c2cccnc2)nc2ccccc12	inconclusive: 28.2 µM [inhibitor, single point]	
O=C(Cc1c(Cl)cccc1Cl)NCCc1ccc(Cl)cc1	inconclusive: 1.12 µM [activator, full curve, poor fit]	
COc1ccc(CCNC(=O)c2cccc(NC(=O)CC3SC(N4CCCCC4)=NC3=O)c2)cc1OC (stereo not drawn)		inactive: 0.155%
CC(C)c1nn2c(=O)cc(COC(=O)c3ccccc3Cl)nc2s1	inconclusive: 22.4 µM [inhibitor, single point]	
CCOc1cc2[nH]c(=O)n(CCCCCC(=O)NC(C)CC)c(=O)c2cc1OCC (stereo not drawn)		inactive: 24% [at 46.1 µM]
COc1ccc(-c2cc(C(=O)N/N=C/c3ccc4c(c3)OCO4)c3ccccc3n2)c(OC)c1	active: 2.51 µM	
CC1CCN(S(=O)(=O)c2cn(CC(=O)Nc3ccc(F)cc3)c(=O)c3ccccc23)CC1	inconclusive: 10 µM [inhibitor, partial curve, poor fit]	
Cc1ccc2[nH]c(=O)c(C(c3nnnn3Cc3ccccc3)N3CCc4ccccc43)cc2c1 (stereo not drawn)	inconclusive: 13 µM [inhibitor, partial curve, poor fit]	
CC(C)CCNC(=O)c1ccc2c(c1)N(C)C(=O)c1ccccc1S2	inconclusive: 20 µM [inhibitor, single point] and inconclusive: 1.12 µM [inhibitor, full curve, poor fit]	
Cc1ccc(-c2nc3cc(NC(=O)c4cc(Br)ccc4Cl)ccc3o2)cc1		inactive: -11.9% [at 46.1 µM]
Nc1nc(N)nc(-c2ccc(Oc3ccccc3)cc2)n1		inactive: 2.97%
Cc1cccn2cc(CCNS(=O)(=O)c3ccc([N+](=O)[O-])cc3)nc12		inactive: -3.65%
CCc1noc(C)c1C(=O)N1CCCC(N2CCN(c3ccccc3F)CC2)C1 (stereo not drawn)		inactive: -10.8% [at 46.1 µM]
CCOc1ccccc1C(=O)N1CCCCC1CCN1CCOCC1 (stereo not drawn)		inactive: 14.8% [at 46.1 µM]
Cc1ccc(NC(=O)c2ccc(CNc3c(N4CCC(C)CC4)c(=O)c3=O)cc2)cc1	inconclusive: 2.51 µM [inhibitor, partial curve, poor fit]	
CC1(C)OC(C(=O)NC2CCCCC2)C(C(=O)NC2CCCCC2)O1 (stereo not drawn)	inconclusive: 0.366 µM [inhibitor, full curve, poor fit]	
CCC(CC)C1C(C#N)=C(N)Oc2n[nH]c(-c3ccccc3)c21 (stereo not drawn)	inconclusive: 5.8 µM [inhibitor, full curve, poor fit]	
Cc1ccc(-c2n[nH]c3c2C(c2cccs2)N(c2ccc(Cl)cc2)C3=O)cc1 (stereo not drawn)	inconclusive: 17.8 µM [inhibitor, single point]	

Some of the entries above, set out differently:
Structure (SMILES),Potency,"activity change, negative = inhibition"
COc1ccc(C(=O)Nc2ccc3[nH]ccc3c2)cc1,active: 1.41 µM,
COc1ccccc1CNC(=O)c1cc(-c2cccnc2)nc2ccccc12,"inconclusive: 28.2 µM [inhibitor, single point]",

More entries:

Structure (SMILES)	Potency	activity change, negative = inhibition
Cc1ccc(C)c(C(=O)CSc2nc3cc(C(=O)NC4CCCC4)ccc3c(=O)n2CC2CCCO2)c1 (stereo not drawn)	inconclusive: 3.98 µM [inhibitor, full curve, poor fit]	
COCc1cc(C)n(CC(=O)Nc2cccc(C(C)=O)c2)c(=O)c1C#N		inactive: -1.15% [at 46.1 µM]
CCOC(=O)CSc1nc2cc(OCC)ccc2cc1C#N	inconclusive: 25.9 µM [inhibitor, single point]	
CCc1ccc(-c2cc(-c3n[nH]c(=S)n3CC)c3ccccc3n2)cc1	inconclusive: 18.4 µM [inhibitor, partial curve, poor fit]	
COc1ccc(NCC(=O)N2CCCC2)cc1Cl	inconclusive: 11.2 µM [inhibitor, single point]	
O=C(CN1CCN(c2ccccc2)CC1)Nc1ccc(OCc2ccccc2)cc1	inconclusive: 20.6 µM [inhibitor, partial curve, poor fit]	
COc1ccc(-n2c3c(cc(C(=O)N4CCN(CCO)CC4)c2=O)C(=O)CC(C)(C)C3)cc1		inactive: -4%
CCOc1ccccc1NC(=O)c1nnn(CC(=O)Nc2ccccc2CC)c1N		inactive: 0.184% [at 46.1 µM]
Cc1onc(-c2c(F)cccc2Cl)c1C(=O)N(Cc1ccccc1)C(C)C	inconclusive: 6.31 µM [inhibitor, full curve, poor fit]	
COc1ccccc1C(=O)/C=C/c1ccc(N2CCCCC2)c([N+](=O)[O-])c1	inconclusive: 20 µM [inhibitor, partial curve, poor fit]	
CCCC(=O)Nc1ccc(C(N)=O)cc1		inactive: -5.9%
Cn1ncnc1SCc1cn2cccnc2n1	inconclusive: 5.62 µM [inhibitor, single point]	
C/C(Cc1ccccc1)=N\NC(=O)CNC(=O)c1ccccc1F	inconclusive: 20 µM [activator, single point]	
C[C@@H]1CCCN1[C@H]1C[S+](=O)([O-])N[C@H]1COCc1ccccc1	inconclusive: 2.81 µM [inhibitor, single point]	
CC(C)c1ccc(S(=O)(=O)c2cnc(SCC(=O)Nc3ccc(F)cc3F)nc2N)cc1	inconclusive: 3.98 µM [inhibitor, full curve, poor fit]	
Cc1ccc(-n2nc3c(N4CCC(C(=O)NCCC(C)C)CC4)nnc(C)c3c2C)cc1		inactive: 14.8% [at 46.1 µM]
Cc1ccc(-c2nnn(CC(=O)N3CCN(c4ccccc4)CC3)n2)o1	inconclusive: 29.1 µM [activator, single point]	
Cc1cc(C)n2c(Nc3cccc(C(F)(F)F)c3)c(-c3ccsc3)nc2n1	inconclusive: 15.8 µM [inhibitor, single point]	
Cc1ccc(NC(=O)CNc2ccccc2N2CCCC2=O)cc1S(=O)(=O)N1CCCCC1	inconclusive: 35.5 µM [inhibitor, single point]	
CCN1C(=O)C(CC(=O)Nc2ccccc2)N(Cc2ccccn2)C1=S (stereo not drawn)		inconclusive: 4.93% [activator] [at 46.1 µM]
Cc1ccc(-c2nnc(N3CCCCC3)c3ccccc23)cc1S(=O)(=O)N(C)C	inconclusive: 10.3 µM [inhibitor, partial curve, poor fit]	
